Experiment: Delay of setting in gypsum
Details: 45 mg substance, 20.0 gm gypsum, 9 ml H2O

Row | SMILES | Setting Time
1 | NC1(P(=O)(O)O)CC(=O)NP1(=O)O (stereo not shown) [n=1, R=H, 2-Hydroxy-2-oxo-3-amino-3-phosphonyl-5-oxo-1-aza-2-phospha-cyclopentane] | 50 min
2 | CCNC1(P(=O)(O)O)CCC(=O)N(CC)P1(=O)O (stereo not shown) [n=2, R=C2 H5, 1-Ethyl-2-hydroxy-2-oxo-3-ethylamino-3-phosphonyl-6-oxo-1-aza-2-phospha-cyclohexane] | 120 min
3 | CCCCNC1(P(=O)(O)O)CCC(=O)N(CCCC)P1(=O)O (stereo not shown) [n=2, R=C4 H9, 1-Butyl-2-hydroxy-2-oxo-3-butylamino-3-phosphonyl-6-oxo-1-aza-2-phospha-cyclohexane] | 120 min
4 | CNC1(P(=O)(O)O)CCC(=O)N(C)P1(=O)O (stereo not shown) [n=2, R=CH3, 1-Methyl-2-hydroxy-2-oxo-3-methylamino-3-phosphonyl-6-oxo-1-aza-2-phospha-cyclohexane] | 100 min
5 | NC1(P(=O)(O)O)CCC(=O)NP1(=O)O (stereo not shown) [n=2, R=H, 2-Hydroxy-2-oxo-3-amino-3-phosphonyl-6-oxo-1-aza-2-phospha-cyclohexane] | 210 min
6 | CNC1(P(=O)(O)O)CCCC(=O)N(C)P1(=O)O (stereo not shown) [n=3, R=CH3, 1-Methyl-2-hydroxy-2-oxo-3-methylamino-3-phosphonyl-7-oxo-1-aza-2-phospha-cycloheptane] | 100 min
7 | NC1(P(=O)(O)O)CCCC(=O)NP1(=O)O (stereo not shown) [n=3, R=H, 2-Hydroxy-2-oxo-3-amino-3-phosphonyl-7-oxo-1-aza-2-phospha-cycloheptane] | 120 min
